1 substance from paper PMC12667553, “TWF2 Drives Tumor Progression and Sunitinib Resistance in Renal Cell Carcinoma through Hippo Signaling Suppression” (Advanced Science, 2025) can be followed below.

Amino acid sequences for entries named in this document (tags omitted).
UniProt P46937: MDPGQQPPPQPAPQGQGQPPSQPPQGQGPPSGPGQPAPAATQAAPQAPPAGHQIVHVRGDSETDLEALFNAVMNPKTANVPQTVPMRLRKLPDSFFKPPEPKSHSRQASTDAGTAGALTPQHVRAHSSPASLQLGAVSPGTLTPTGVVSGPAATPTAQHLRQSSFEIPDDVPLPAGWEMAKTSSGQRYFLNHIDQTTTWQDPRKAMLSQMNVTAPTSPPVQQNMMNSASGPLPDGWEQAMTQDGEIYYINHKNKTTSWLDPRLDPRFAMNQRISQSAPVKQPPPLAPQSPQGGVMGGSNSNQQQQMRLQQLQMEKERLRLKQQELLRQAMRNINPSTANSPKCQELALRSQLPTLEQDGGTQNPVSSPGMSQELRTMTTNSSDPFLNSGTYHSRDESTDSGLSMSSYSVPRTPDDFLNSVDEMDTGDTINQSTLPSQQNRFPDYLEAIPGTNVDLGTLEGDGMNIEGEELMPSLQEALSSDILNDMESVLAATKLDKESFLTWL

No constants are given. Whether binding was seen depends on the method and setting. Binding seen in cells or lysates may run through a third protein. These calls come from enrichment with a bait or labelling near it, and not all partners need be listed. Sequences can lack the tags named with a protein.

The experiment has as its target T1, Flag-tagged TWF2 (Twinfilin actin-binding protein 2), wild type, overexpressed in 786-O cells (human) (UniProt Q6IBS0).
T1 sequence: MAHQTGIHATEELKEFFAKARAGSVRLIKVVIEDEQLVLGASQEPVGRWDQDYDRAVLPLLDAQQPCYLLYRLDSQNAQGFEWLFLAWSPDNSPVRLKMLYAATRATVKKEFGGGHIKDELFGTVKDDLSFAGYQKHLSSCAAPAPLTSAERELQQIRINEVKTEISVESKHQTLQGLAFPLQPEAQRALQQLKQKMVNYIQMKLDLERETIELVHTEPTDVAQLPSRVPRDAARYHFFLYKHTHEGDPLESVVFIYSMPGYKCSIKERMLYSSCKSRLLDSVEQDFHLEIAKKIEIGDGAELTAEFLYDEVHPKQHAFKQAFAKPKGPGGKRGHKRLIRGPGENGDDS
The experiment is described as follows: affinity purification with mass spectrometry; TWF2-Flag overexpressed in 786-O cells; lysate on anti-Flag magnetic beads overnight at 4 °C, eluted with Flag peptide; silver-stained SDS-PAGE, band at about 70 kDa cut out and read by LC-MS.

Turning to “Yes-associated protein (YAP), endogenous in RCC cells (from UniProt P46937 1-504)”, the binding result is “binds”.
